Experimental data reported in the supplement of paper PMC3334620.
Over roughly 33,000 sequences, “E-score (-0.5 to 0.5)” has its median near -0.0014; the highest 2% begin near 0.25. Some of the results follow.

These sequences were tested against T1, Cad1 (UniProt P24813) (assay: PBM E-score (8-mer binding enrichment) (E-score (-0.5 to 0.5)); higher = stronger / more preferred TF binding). Conditions: protein concentration: 100 nM; construct: GST-full length.
T1 sequence: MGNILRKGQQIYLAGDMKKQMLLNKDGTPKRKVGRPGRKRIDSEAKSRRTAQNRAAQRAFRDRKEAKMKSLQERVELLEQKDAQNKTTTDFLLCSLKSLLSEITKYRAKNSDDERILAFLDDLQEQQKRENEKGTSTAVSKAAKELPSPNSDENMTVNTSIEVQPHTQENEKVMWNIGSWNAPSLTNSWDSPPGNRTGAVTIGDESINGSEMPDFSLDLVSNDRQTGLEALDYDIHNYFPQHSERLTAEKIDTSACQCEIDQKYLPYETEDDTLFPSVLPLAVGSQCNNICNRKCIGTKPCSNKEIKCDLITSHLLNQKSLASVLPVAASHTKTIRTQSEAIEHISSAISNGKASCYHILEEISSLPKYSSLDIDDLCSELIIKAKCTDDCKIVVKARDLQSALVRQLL
In short: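 E-scores (a modified Wilcoxon-Mann-Whitney statistic) were assigned by the Universal PBM Analysis Suite to every ungapped eight-base word pooled with its reverse complement. The input came from universal all-10-mer Agilent arrays made double-stranded by primer extension and probed with GST-tagged yeast transcription factors at about 100-200 nM. Fluorescent anti-GST detected bound protein, and masliner normalised the scans.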

Sequence | PBM E-score
AACCGTTA | -0.0839
GTGCAATA | 0.0215
AAATGCGC | 0.224
GGTCATCA | 0.0893
ACTCACGC | -0.0934
CATCGTAA | -0.0133
ACTCTATA | 0.0276
AGGTGTCC | 0.0345
AAGAAAGT | 0.0333
TCCTTTCA | 0.0428
AGTAAAGC | -0.00649
AGGGACCC | -0.141
GAGCTACA | -0.226
CATATATA | 0.164
CCTGAGAC | -0.206
ACGATCGG | 0.0625
CGCCGTTC | 0.086
AGACAATG | 0.02
AACCGCCG | -0.12
AACAGGAC | 0.0596
AGTAAGCC | 0.156
AAGGTCTG | -0.0627
ATTTCGCA | 0.195
CCAATTCG | 0.00661
CCCAAAGG | -0.226

Sequence | PBM E-score
CTCACATC | -0.0273
AGATAAGC | 0.122
CGTAAGTA | 0.0957
AACTCTAC | -0.181
ACAAGTAG | -0.25
CAACCAAA | 0.0894
AGGGAGAA | -0.102
CCTCTTAA | 0.123
CATTGCTA | 0.209
CCACTACA | -0.113
ATCTGGGC | -0.165
ATTCTGCA | 0.149
GCTCCGAC | -0.0885
ACCTAAAG | 0.11
GTCAAGAC | -0.149
CCAAACCG | 0.0268
AGACGTTC | 0.0289
ATGCGCCA | -0.0186
ACGGTTCC | 0.161
TGGCACCA | -0.0587
CTTATCGC | 0.0636
GACCGCAC | -0.118
AGCGCGAT | 0.22
GCAGTCCA | -0.0495
ATTGTGGG | 0.0283

Reformatted: results already given.
AGACGTTC
  PBM E-score = 0.0289
ATGCGCCA
  PBM E-score = -0.0186

Further results follow:

Sequence | PBM E-score
CGGACGAC | -0.0294
CAAGATAA | 0.0886
ATATGTAA | 0.209
ATAATGGG | -0.0187
AGACCAGC | -0.203
ACTCCGTA | -0.228
CAAGTTCG | -0.118
ACGGAACT | 0.14
AGAGATCA | -0.0178
CTGTAATC | 0.0947
ATCGAAAT | 0.0274
TATCAGCA | 0.0575
CAAGATGA | -0.189
TAACGGGA | -0.0399
ACCCAAGG | -0.0568
ATCGACTA | -0.0833
CTAAATCC | 0.106
GCTTGTAA | 0.0954
ATCCATGG | -0.0689
AGTTCTCC | -0.21
AACGCTAA | -0.0579
CTTTGGTC | -0.0468
CGGGATTC | 0.0799
CATTGAGG | -0.202
AGCACTAA | 0.094

Sequence | PBM E-score
AGGTAGGC | -0.156
CACGTCGA | -0.0493
CCTTGGTA | 0.0354
GGCTACAC | -0.0182
AATTTTCG | 0.09
AGGACAAG | -0.13
CACAGCAC | -0.0189
ACAAGTAC | -0.0799
AAAGACGA | -0.00996
GGATCGCC | -0.00869
GACAGGTA | -0.0364
AGGGAGAG | -0.194
GGATCAAA | 0.111
AAGACCAT | 3e-05
CCGGGACC | -0.0474
ATGTTTCA | 0.0198
GAAGGGAC | -0.216
AAGCTGAT | 0.216
CCTATAGA | 0.0029
CCCCGAAG | -0.127
CGTATATA | 0.0397
CTCACAAG | 0.0553
GAGATCAA | 0.0808
AACGACCC | -0.0693
GCACTATA | 0.0551

Looked up one by one from the list above:
Sequence | PBM E-score
AGGGAGAG | -0.194
CGTATATA | 0.0397
AATTTTCG | 0.09
CACGTCGA | -0.0493
AGGACAAG | -0.13
AAAGACGA | -0.00996
GACAGGTA | -0.0364

Further records

Sequence | PBM E-score
ATGTCTGC | -0.0115
TCGCGTCA | 0.0403
CCCGGAGC | 0.0222
GTCCATTA | 0.0858
ATTCTTCC | -0.0601
GCACACCA | -0.0778
CATCTCCG | 0.112
CCCACTCC | -0.208
AAGCCACA | 0.0406
CCGCCATA | 0.0886
GATATACA | 0.0899
AGAGTCCG | -0.0441
AGAGTTCC | -0.0891
ACCTTGTC | -0.158
ACTCCGTG | -0.0771
CGAGGTCC | -0.176
AAACCTCT | -0.0674
ATTCCATG | 0.019
GACCATCC | -0.138
AAACTGGG | -0.0371
CTATGCCC | -0.173
ATTACGCA | 0.247
AGGGGCCG | -0.251
ATGCATTG | 0.11
CCGATAAA | 0.0613

Sequence | PBM E-score
CACAGACA | 0.208
CTCCTAAG | -0.168
GGGTGATA | -0.246
ACTACACA | 0.197
AACAGGTC | -0.118
ATGAAAAC | 0.211
TGACAGAA | 0.081
CGCGATAA | 0.228
CAGATGGA | 0.0795
ACTCGTTG | -0.0914
TGTTCGAA | 0.186
AACATGAA | -0.00852
GAGGTTGC | -0.255
AGAACTCC | -0.157
GTGGGGTA | 0.102
CCCTTCGA | 0.0124
GAAATCGA | 0.0829
TCCCGGAA | 0.183
AAGACAGC | -0.0251
ATTTTAAC | 0.0574
ATTCACCC | -0.111
AGAATCCT | -0.0342
TAGTGTCA | 0.171
AGCTTCAA | 0.0577
CGCTCTCA | -0.0678

Sequence | PBM E-score
AATAGGAT | 0.247
TACGTTGA | 0.0119
CTCGTTTC | -0.0328
CCGTAATA | 0.113
CGAGGCAC | -0.121
CGAGAGAA | 0.0965
GGAATTAC | 0.21
ATAGGTTC | 0.0253
GTTCGAAA | 0.241
AAGTTTTA | 0.121
CGTTATCA | -0.0179
CTTATGAA | 0.00813
TACAGTAA | 0.0528
AACCCCCT | -0.39
CATGGAAG | -0.0598
ATGACGGG | -0.0192
ATTACATG | 0.301
ACTCTGTA | -0.171
AAGCAATC | 0.00394
AAAGTAGC | -0.0802
CCAACGCG | 0.0544
AACGCCAT | -0.0315
